Assay results as given in PubChem BioAssay AID540276 (National Center for Advancing Translational Sciences (NCATS), 2011).
About 5,400 (1.8%) of roughly 300,000 compounds were called active. The shares of active, inactive and inconclusive entries below differ from those in the screen. Calls come from the whole dose curve; tested in HEK293 cells. A potency beside an inconclusive call is a rough fit, not a confirmed value.
Potency is the fitted concentration of half-maximal effect.

Experiment: qHTS for inhibitors of binding or entry into cells for Marburg Virus
Conditions: Marburg virus pseudotyped entry inhibition, cell reporter; series mostly up to 37.8 µM
For `COc1ccc(NC(=O)c2cccc(N3C(=O)C4C5C=CC(C6CC56)C4C3=O)c2)c(OC)c1` (stereo not given), the Potency was inconclusive: 0.794 µM [inhibitor, single point].
With `COc1ccc(COc2cc(-c3cccc(OC)c3)nc3ccc(NC(=O)c4ccc(OC)cc4)cc23)cc1` the Potency was inconclusive: 29.1 µM [inhibitor, single point].
For `COc1c(OC(C)=O)ccc(/C=N\NC(=O)c2ccc(Br)cc2)c1[N+](=O)[O-]`, the Potency was “inactive”.
With `O=C(CSc1n[nH]c(-c2ccccc2O)n1)N1CCCc2ccccc21` the Potency was inconclusive: 0.259 µM [inhibitor, full curve].
In the case of `CN1CCCN(C(=O)CC2(CC(=O)O)CCCCC2)CC1`, the Potency is reported as “inactive”.
In the case of `Cn1ncc(Br)c1C(=O)NC(=S)N1CCN(c2ccccn2)CC1`, the Potency is reported as inconclusive: 3.55 µM [inhibitor, partial curve, poor fit].
For `O=C(COC(=O)c1ccc(Sc2ccccc2)c([N+](=O)[O-])c1)NC1CCS(=O)(=O)C1` (stereo not given), the Potency was inconclusive: 3.16 µM [activator, partial curve, poor fit].
With `O=C1NC(=S)NC(=O)C1Nc1ccc(Cl)cc1` the Potency was inconclusive: 1.12 µM [inhibitor, full curve, poor fit].
For `O=C(N=NC(=O)c1ccco1)c1ccc2c(O)n(N3C(=O)c4ccccc4C3=O)c(O)c2c1`, the Potency was inconclusive: 14.1 µM [activator, single point].
In the case of `O=C(N/N=C/c1ccc(Cl)cc1)C(=O)N1CCCCCC1`, the Potency is reported as “inactive”.
In the case of `O=C(Nc1ccc(N2CCOCC2)cc1)c1nc2ccccc2s1`, the Potency is reported as inconclusive: 0.891 µM [activator, full curve, poor fit].
With `Cc1cc(NC(=O)CCC(=O)NNC(=O)c2ccc(C(C)(C)C)cc2)no1` the Potency was inconclusive: 20 µM [activator, partial curve, poor fit].
With `CC1=NN(C(N)=S)C(=O)C1N=Nc1cccc(C(=O)O)c1` (stereo not given) the Potency was inconclusive: 2.51 µM [inhibitor, full curve, poor fit].
For `COc1ccc2[nH]cc(CCNC(=O)CS(=O)(=O)Cc3ccccc3)c2c1`, the Potency was inconclusive: 0.891 µM [inhibitor, full curve, poor fit].
In the case of `Cc1ccc(C)c(-n2c3nc(=O)[nH]c(=O)c-3cc3cc([N+](=O)[O-])ccc32)c1`, the Potency is reported as inconclusive: 3.16 µM [inhibitor, partial curve, poor fit].
In the case of `Cc1sc2nc(CN(C(=O)c3cccs3)C3CCCC3)[nH]c(=O)c2c1C`, the Potency is reported as inconclusive: 10 µM [inhibitor, partial curve, poor fit].
For `Nc1nc2ccc(Cl)cc2c2nc(-c3ccco3)nn12`, the Potency was inconclusive: 0.708 µM [inhibitor, full curve, poor fit].
With `COc1ccc(C(=O)c2ccc([N+](=O)[O-])cc2Cl)cc1` the Potency was inconclusive: 35.5 µM [inhibitor, single point].
For `Cc1ccc(N2C(=O)CC(NNc3nc4ccccc4s3)C2=O)cc1` (stereo not given), the Potency was inconclusive: 3.16 µM [activator, single point].
With `CC(=O)N1CCN(c2nc(-c3ccco3)c3c(c2C#N)CC(C)(C)SC3)CC1` the Potency was “inactive”.
With `CCOC(=O)Cc1csc(NC(=O)c2cnc3sc(C)cn3c2=O)n1` the Potency was inconclusive: 11.2 µM [activator, partial curve, poor fit].
In the case of `COc1ccc(Cl)cc1C(=O)NNC(=O)CSc1nncn1C`, the Potency is reported as “inactive”.
In the case of `Cc1ccc(N2C(=O)c3ccccc3C2Nc2ccc(S(=O)(=O)N3CCOCC3)cc2)nc1` (stereo not given), the Potency is reported as “inactive”.
With `CCOC(=O)c1c(NC(=O)C2C3C=CC(C3)C2C(=O)O)sc2c1CCCC2` (stereo not given) the Potency was inconclusive: 0.316 µM [inhibitor, full curve, poor fit].
In the case of `CCOC(=O)N1CCC(N2Cc3cccc(C(=O)Nc4ccc(S(=O)(=O)N(CC)CC)cc4)c3C2=O)CC1`, the Potency is reported as “inactive”.
For `COC(=O)Cn1nnc2c(cnn2-c2ccccc2)c1=O`, the Potency was “inactive”.
In the case of `CCCCNC(=S)NNC(=O)c1csc(C(C)C)c1`, the Potency is reported as inconclusive: 20.6 µM [activator, single point].
In the case of `CCOC(=O)/C(C#N)=C\c1cc(C)n(-c2ccccc2)c1C`, the Potency is reported as inconclusive: 0.517 µM [activator, partial curve].
In the case of `CCc1ccc(NC(=O)NC(C)c2ccc3c(c2)OCO3)cc1` (stereo not given), the Potency is reported as inconclusive: 22.4 µM [inhibitor, single point].
For `COc1ccc(N2CCN(C(=O)c3csc4ccccc34)CC2)cc1`, the Potency was “inactive”.
For `COc1ccc(Nc2ccnc(Nc3ccc(OC)cc3)n2)cc1`, the Potency was inconclusive: 29.1 µM [inhibitor, single point].
For `C=CCN1C(=O)C(Cc2ccccc2)SC1=Nc1ccc(C(=O)O)cc1` (stereo not given), the Potency was inconclusive: 0.794 µM [activator, full curve, poor fit].
With `COc1ccc(CN2CCN(C(=O)CCC(=O)Nc3nnc(C4CCCCC4)s3)CC2)cc1F` the Potency was “inactive”.
In the case of `COc1ccc(-c2nc(C#N)c(N3CCOCC3)o2)cc1OC`, the Potency is reported as inconclusive: 12.6 µM [inhibitor, partial curve, poor fit].
For `Cc1sc2nc(CSc3n[nH]c(N)n3)[nH]c(=O)c2c1C`, the Potency was “inactive”.
With `CCOC(=O)CS(=O)(=O)c1nc(-c2ccc(F)cc2)cc(C(F)(F)F)n1` the Potency was inconclusive: 12.6 µM [inhibitor, partial curve, poor fit].
For `CCc1nn(Cc2c(C)cc(C)cc2C)c(=O)c2cc3cc(C)ccc3n12`, the Potency was inconclusive: 0.631 µM [inhibitor, full curve, poor fit].
For `COc1ccc(Nc2ncc3c(n2)CC(c2ccc(OC)cc2)CC3=O)cc1` (stereo not given), the Potency was inconclusive: 20 µM [activator, single point].
In the case of `COc1cc(/C=C/[N+](=O)[O-])ccc1OCc1cccc(C(=O)O)c1`, the Potency is reported as inconclusive: 1 µM [activator, full curve, poor fit].
With `N#C/C(=C(/O)CCl)c1nc2c(s1)CCc1ccccc1-2` the Potency was “inactive”.
For `S=C1SCN(Cc2ccco2)CN1Cc1ccco1`, the Potency was inconclusive: 15.8 µM [inhibitor, single point].
In the case of `CCC(=O)N1CCc2cc(Br)c(S(=O)(=O)NCCN3CCCCC3CC)cc21` (stereo not given), the Potency is reported as “inactive”.
With `Cc1ccc(C2C=C(c3ccc(Cl)cc3)Nc3nc(NC(=O)c4ccco4)nn32)cc1` (stereo not given) the Potency was inconclusive: 35.5 µM [inhibitor, single point].
In the case of `COc1ccc(C2C(C#N)=C(N)Oc3c2ccc2cccnc32)cc1OC` (stereo not given), the Potency is reported as inconclusive: 0.411 µM [inhibitor, full curve].
For `COc1ccc2cc(Br)ccc2c1CC(=O)NC(C)(C)C`, the Potency was inconclusive: 0.316 µM [activator, partial curve, poor fit].
In the case of `Cc1cc(C(=O)COC(=O)c2ccncc2)c(C)n1Cc1ccco1`, the Potency is reported as “inactive”.
In the case of `CCOC(=O)C1(CCCc2ccccc2)CCN(Cc2cnc(C)s2)CC1`, the Potency is reported as inconclusive: 11.2 µM [inhibitor, partial curve, poor fit].
For `COc1ccc(/C=C2\SC(=S)N(CCCC(=O)NNC(=O)c3ccccc3O)C2=O)cc1`, the Potency was inconclusive: 4.47 µM [inhibitor, single point].
For `CCCCOP(=O)(c1ccc(N(C)C)cc1)C(Nc1ccccc1)c1ccccc1` (stereo not given), the Potency was inconclusive: 17.8 µM [inhibitor, single point].
In the case of `O=C(c1cccc(Oc2ccccc2)c1)N1CCN(c2ccccn2)CC1`, the Potency is reported as inconclusive: 20 µM [inhibitor, single point].
For `CC(=O)OC1CCC2(C)C(=CCC3C4CC(=O)N(O)C(=O)C4(C)CCC32)C1` (stereo not given), the Potency was inconclusive: 2.82 µM [inhibitor, single point].
With `C=C(C)c1cccc(C(C)(C)NC(=O)Nc2cc(C)ccc2OC)c1` the Potency was inconclusive: 18.3 µM [inhibitor, partial curve].
In the case of `CC(C(=O)Nc1ccc(F)c(F)c1F)N(C)CC(=O)Nc1ccccc1Br` (stereo not given), the Potency is reported as inconclusive: 17.8 µM [inhibitor, single point].
With `CCC(C)NC(=O)c1ccc(N2CCC3(CC2)OCCO3)c([N+](=O)[O-])c1` (stereo not given) the Potency was inconclusive: 12.6 µM [activator, single point].
For `N#CCC(CNc1ncc(C(F)(F)F)cc1Cl)OC(=O)c1ccc(Cl)cc1Cl` (stereo not given), the Potency was “inactive”.
With `NC(=O)c1ccc(NC(=O)CCCc2nc(-c3ccccc3Cl)no2)cc1` the Potency was inconclusive: 29.1 µM [inhibitor, single point].
In the case of `CC(=O)Nc1ccccc1OCC(=O)N(Cc1ccccc1)C(C)C`, the Potency is reported as inconclusive: 6.31 µM [inhibitor, partial curve, poor fit].
With `O=C(CN(Cc1ccccc1)C(=O)c1ccco1)NCc1ccc(F)cc1` the Potency was inconclusive: 15.8 µM [activator, single point].
In the case of `Cc1ccccc1C(=O)NC(=S)Nc1ccc(S(=O)(=O)N2CCN(C)CC2)cc1`, the Potency is reported as inconclusive: 0.112 µM [activator, full curve, poor fit].
For `CCCCCc1nn2cc(-c3ccccc3)nc2s1`, the Potency was “inactive”.
In the case of `Cn1nnnc1SCCCNCc1cc(Cl)ccc1OCc1ccccc1F`, the Potency is reported as inconclusive: 7.94 µM [inhibitor, partial curve, poor fit].
With `CCOc1ccc(S(=O)(=O)NCc2ccncc2)cc1NC(=O)c1ccccc1F` the Potency was inconclusive: 3.16 µM [inhibitor, partial curve, poor fit].
For `CCOc1ccc(NC(=O)CSc2nnc(Cn3cnc([N+](=O)[O-])n3)n2CC)cc1`, the Potency was inconclusive: 1.26 µM [inhibitor, single point].
For `COc1ccccc1NC(=O)c1ccc(NC(=O)COC(=O)C2(C)CC2(Cl)Cl)cc1` (stereo not given), the Potency was “inactive”.
In the case of `O=C(/C=C/c1cccs1)NC(=S)Nc1ccccc1`, the Potency is reported as inconclusive: 3.55 µM [inhibitor, single point].
